Reference: article doi:10.1101/2024.11.25.625148

By UniProt entry, the sequences of proteins in these tests, tags left out. Residues count along the entry.
UniProt Q8K2C6, residues 37-310: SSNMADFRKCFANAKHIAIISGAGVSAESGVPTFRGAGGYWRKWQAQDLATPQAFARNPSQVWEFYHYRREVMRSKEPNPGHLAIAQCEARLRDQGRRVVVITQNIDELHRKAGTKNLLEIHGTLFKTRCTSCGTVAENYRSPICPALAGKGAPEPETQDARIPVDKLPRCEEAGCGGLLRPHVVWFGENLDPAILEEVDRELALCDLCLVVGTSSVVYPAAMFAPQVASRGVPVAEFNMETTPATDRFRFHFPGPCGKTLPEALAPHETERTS

Target: Sirt5 (mouse (endogenous in HL-1 cells and mouse myocardium)) (UniProt Q8K2C6)
Assay: affinity purification with mass spectrometry

B1: adenine nucleotide translocase 2 (ANT2) (protein, UniProt P51881 1-298)
chain: MTDAAVSFAKDFLAGGVAAAISKTAVAPIERVKLLLQVQHASKQITADKQYKGIIDCVVRIPKEQGVLSFWRGNLANVIRYFPTQALNFAFKDKYKQIFLGGVDKRTQFWRYFAGNLASGGAAGATSLCFVYPLDFARTRLAADVGKAGAEREFKGLGDCLVKIYKSDGIKGLYQGFNVSVQGIIIYRAAYFGIYDTAKGMLPDPKNTHIFISWMIAQSVTAVAGLTSYPFDTVRRRMMMQSGRKGTDIMYTGTLDCWRKIARDEGSKAFFKGAWSNVLRGMGGAFVLVLYDEIKKYT
binding: binds

No constants are given. Whether binding was seen depends on the method and setting. Binding seen in cells or lysates may run through a third protein. A yes stands for co-enrichment or nearness to the bait. Other partners may have been found.
